Among the data in paper doi:10.1101/2025.11.10.687648 are binding values, retold here.

The chains behind the UniProt entries cited, without tags or fusion partners.
UniProt P01106: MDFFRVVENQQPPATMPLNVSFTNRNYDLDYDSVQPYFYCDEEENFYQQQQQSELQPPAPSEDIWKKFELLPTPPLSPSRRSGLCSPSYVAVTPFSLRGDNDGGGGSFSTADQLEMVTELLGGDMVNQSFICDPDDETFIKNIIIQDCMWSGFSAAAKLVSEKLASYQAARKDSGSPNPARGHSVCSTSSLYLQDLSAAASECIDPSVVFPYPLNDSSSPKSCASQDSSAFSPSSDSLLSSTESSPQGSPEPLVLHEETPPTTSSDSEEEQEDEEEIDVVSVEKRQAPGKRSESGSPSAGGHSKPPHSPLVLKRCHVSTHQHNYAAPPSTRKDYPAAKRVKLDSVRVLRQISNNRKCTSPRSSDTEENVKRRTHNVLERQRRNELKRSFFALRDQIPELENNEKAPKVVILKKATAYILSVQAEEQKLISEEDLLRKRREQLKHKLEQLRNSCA
UniProt Q9UMN6: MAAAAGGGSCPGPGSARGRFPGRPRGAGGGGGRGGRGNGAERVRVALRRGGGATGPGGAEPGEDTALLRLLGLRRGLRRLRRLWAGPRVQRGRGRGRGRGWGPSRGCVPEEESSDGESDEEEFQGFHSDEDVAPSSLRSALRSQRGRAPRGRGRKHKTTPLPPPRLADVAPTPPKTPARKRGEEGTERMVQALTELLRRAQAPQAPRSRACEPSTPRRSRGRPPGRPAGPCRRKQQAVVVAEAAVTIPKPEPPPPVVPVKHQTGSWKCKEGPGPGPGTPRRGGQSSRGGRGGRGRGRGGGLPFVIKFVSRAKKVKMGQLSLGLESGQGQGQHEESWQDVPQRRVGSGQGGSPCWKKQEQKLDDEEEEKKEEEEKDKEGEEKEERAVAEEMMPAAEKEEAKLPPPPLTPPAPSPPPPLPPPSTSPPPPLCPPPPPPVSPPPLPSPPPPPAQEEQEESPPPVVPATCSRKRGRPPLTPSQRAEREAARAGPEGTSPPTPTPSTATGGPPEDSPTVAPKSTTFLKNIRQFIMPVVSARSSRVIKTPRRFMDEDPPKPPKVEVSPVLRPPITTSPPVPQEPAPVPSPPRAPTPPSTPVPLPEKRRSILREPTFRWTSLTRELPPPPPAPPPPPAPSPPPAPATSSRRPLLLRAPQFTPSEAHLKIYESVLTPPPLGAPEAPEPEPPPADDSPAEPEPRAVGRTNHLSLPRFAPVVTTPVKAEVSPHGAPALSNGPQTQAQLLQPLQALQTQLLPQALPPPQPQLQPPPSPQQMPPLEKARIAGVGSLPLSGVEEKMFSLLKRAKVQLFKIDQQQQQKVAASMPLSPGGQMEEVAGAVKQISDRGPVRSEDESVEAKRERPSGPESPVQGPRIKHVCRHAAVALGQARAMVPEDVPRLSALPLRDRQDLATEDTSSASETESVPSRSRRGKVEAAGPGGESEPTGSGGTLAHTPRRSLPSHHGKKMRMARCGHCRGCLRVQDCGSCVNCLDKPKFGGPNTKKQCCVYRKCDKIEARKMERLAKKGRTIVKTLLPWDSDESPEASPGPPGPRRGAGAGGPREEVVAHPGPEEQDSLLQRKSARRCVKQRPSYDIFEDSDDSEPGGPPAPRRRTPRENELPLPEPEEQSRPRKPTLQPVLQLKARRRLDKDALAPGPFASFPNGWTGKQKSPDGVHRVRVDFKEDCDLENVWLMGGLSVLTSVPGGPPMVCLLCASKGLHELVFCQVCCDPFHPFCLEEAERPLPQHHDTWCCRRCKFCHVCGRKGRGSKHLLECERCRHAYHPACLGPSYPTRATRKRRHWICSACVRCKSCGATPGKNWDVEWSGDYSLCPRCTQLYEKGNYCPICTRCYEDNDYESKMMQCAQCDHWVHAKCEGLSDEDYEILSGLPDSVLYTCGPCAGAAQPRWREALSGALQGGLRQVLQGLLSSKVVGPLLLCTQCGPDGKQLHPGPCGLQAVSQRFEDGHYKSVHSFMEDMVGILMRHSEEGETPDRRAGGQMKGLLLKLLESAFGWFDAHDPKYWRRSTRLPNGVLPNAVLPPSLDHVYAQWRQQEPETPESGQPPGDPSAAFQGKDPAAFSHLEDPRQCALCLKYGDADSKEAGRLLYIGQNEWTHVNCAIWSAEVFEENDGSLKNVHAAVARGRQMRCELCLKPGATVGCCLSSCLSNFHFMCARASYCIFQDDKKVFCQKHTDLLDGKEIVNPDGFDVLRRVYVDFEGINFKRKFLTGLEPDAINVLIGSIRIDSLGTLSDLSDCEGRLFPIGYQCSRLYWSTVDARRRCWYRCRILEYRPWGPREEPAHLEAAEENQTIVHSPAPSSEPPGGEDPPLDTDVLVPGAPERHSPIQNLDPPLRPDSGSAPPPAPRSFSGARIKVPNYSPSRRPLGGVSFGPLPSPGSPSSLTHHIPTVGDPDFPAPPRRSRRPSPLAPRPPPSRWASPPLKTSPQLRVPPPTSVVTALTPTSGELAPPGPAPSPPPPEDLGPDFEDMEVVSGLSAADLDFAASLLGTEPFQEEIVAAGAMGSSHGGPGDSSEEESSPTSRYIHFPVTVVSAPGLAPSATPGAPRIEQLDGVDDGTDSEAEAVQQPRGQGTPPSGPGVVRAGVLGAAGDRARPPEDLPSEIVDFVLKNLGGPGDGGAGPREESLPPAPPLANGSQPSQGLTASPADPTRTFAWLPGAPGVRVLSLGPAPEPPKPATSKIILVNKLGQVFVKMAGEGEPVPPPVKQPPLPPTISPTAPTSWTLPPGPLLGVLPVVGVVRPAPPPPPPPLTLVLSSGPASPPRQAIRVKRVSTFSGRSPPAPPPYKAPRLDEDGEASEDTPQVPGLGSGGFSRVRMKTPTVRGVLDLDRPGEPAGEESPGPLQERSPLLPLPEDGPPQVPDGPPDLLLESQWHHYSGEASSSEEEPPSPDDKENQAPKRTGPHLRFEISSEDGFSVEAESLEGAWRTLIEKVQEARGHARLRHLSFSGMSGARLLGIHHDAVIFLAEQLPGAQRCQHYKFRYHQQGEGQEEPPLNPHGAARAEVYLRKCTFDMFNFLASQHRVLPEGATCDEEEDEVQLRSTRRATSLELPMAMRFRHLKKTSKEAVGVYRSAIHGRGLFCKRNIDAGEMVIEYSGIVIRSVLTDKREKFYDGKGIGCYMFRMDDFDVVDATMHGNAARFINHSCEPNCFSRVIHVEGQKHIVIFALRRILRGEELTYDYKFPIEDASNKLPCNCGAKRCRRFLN

Test [1] concerns the target MYC (human (endogenous in A673, CHLA10, TC32, U2OS)) (UniProt P01106). The experiment in a line: co-IP.
For test [2], the target named is T1, Menin (human (endogenous in A673, CHLA10, TC32, U2OS)) (UniProt O00255).
T1 sequence: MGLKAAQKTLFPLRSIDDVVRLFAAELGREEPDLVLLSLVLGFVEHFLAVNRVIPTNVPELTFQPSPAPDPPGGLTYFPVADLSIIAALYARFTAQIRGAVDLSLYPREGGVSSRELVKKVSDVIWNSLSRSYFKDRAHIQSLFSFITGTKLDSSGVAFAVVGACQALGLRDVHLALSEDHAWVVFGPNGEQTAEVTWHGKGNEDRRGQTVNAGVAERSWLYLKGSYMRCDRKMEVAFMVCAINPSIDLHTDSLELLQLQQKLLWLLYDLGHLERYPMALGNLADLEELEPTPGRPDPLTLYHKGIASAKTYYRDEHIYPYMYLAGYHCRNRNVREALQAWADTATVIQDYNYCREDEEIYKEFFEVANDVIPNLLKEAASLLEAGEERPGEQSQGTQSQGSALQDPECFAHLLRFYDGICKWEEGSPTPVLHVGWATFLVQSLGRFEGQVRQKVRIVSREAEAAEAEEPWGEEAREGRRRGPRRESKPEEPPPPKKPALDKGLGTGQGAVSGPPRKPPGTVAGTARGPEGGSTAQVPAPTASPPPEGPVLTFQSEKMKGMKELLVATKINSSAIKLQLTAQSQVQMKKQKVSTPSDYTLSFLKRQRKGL
Nature of the test: co-IP.

Results are given in words; binding and its absence hold for the method and conditions named. In cells and extracts the contact can be indirect. Some entries that bind do so weakly or less than the wild type.

In the case of “MLL2 (KMT2B) (from UniProt Q9UMN6 1-2715)”, the binding entry in test [1] was “no binding”; in test [2], “binds”.
Take MYC (from UniProt P01106 1-454): in test [2], the binding result is “binds”.

B1: Menin (protein, UniProt O00255 1-610)
chain: T1 sequence
As to B1, the binding entry in test [1] was “binds”.
